Results: article PMC12670160, “A drug-repurposing screen of FDA- and EMA-approved drugs identifies two NF-κB inhibitors active against eumycetoma” (Journal of Antimicrobial Chemotherapy, 2025)
Counter-ions that a name gives are not always drawn. Like-named read-outs stand apart in the source and are kept apart here. Among all 5,300 compounds or so, about 130 (2.5%) showed an effect of 50% or more. This is one part of the list. Peptide text beside a SMILES is read from it. * marks the point of attachment. Cbz = O=C(OCc1ccccc1)*

Test system: M. mycetomatis strain mm55
Details: primary screen, metabolic activity vs growth control, 96 h, 2 µM, inhibitor

SMILES | % viability | % viability (Madurella mycetomatis metabolic activity at 2µM (%))
On1ncc(C2CCNCC2)c1-c1cccc(-c2ccccc2)c1 [ONC0002501, php501 trifluoroacetate] | 45.31% | 
C[C@H](Nc1ncnc2[nH]cnc12)c1nc2ccc(F)cc2c(=O)n1-c1ccccc1 [ONC0001064, acalisib] | 63.52% | 
CN(C)c1ccc(-c2nc3c(N4CCN(CC(=O)Nc5nccs5)CC4)c(Cl)cnc3[nH]2)cc1 [ONC0004963, cct129202] | 95.03% | 
Cc1ncc(CSSCc2cnc(C)c(O)c2CO)c(CO)c1O [ONC0003982, pyritinol] | 71.7% | 
CC(C)(C#N)c1ccc(N2C(=O)OCc3cnc4ccc(-c5cnc6ccccc6c5)cc4c32)cc1 [ONC0004523, etp46464] | 59.45% | 
O=C(O)[C@H](Cc1ccc(Nc2nccc3ccncc23)cc1)NC1=C(Br)C(=O)C12CCCCC2 [ONC0000960, zaurategrast] | 60.06% | 
CCN(CC)Cc1ccc2cc(COC(=O)Nc3ccc(C(=O)NO)cc3)ccc2c1 [ONC0004762, itf2357 givinostat] | 92.61% | 
CCOC(=O)c1ccc(OCCC2CCN(c3ccc(C)nn3)CC2)cc1 [ONC0001128, pirodavir] | 72% | 
CCOC(=O)[C@H](Cc1ccc([N+](=O)[O-])cc1)NC(=O)c1ccccc1 [ONC0001444, sb297006] | 60.86% | 
CC(C)C[C@@H](C=O)NC(=O)[C@H](CC(C)C)NC(=O)[C@H](CC(C)C)NC(=O)OCc1ccccc1 [ONC0005043, mg132] (Cbz-Leu-Leu-Leu-aldehyde) | 69.11% | 
Fc1ccccc1-c1nc2ccn(Cc3ccc(-c4ccc(C(F)(F)F)cc4C(F)(F)F)nn3)cc-2n1 [ONC0000793, tegobuvir] | 88.73% | 
Oc1cccc(Nc2ccc(Nc3cccc(O)c3)nn2)c1 [ONC0002962, 363hydroxyphenylaminopyridazin3ylaminophenol] | 67.52% | 
CCN(CC)CCOc1ccc(Cc2ccccc2)cc1 [ONC0000853, dppe] | 85.58% | 
O=c1c(O)c(-c2cc(O)c(O)c(O)c2)oc2cc(O)cc(O)c12 [ONC0005243, myricetin cannabiscetin] | 113.8% | 
COCc1nnc(N2CC(Oc3ccc(F)cc3Cl)C2)n1-c1ccc(OC)nc1 [ONC0002476, cligosiban] | 70.11% | 
c1ccc(C(NCCNC(c2ccccc2)c2ccccc2)c2ccccc2)cc1 [ONC0003527, amn082] | 180.9% | 
COc1ccc(OC)c(CN(C(C)=O)c2cc(F)ccc2Oc2ccccc2)c1 [ONC0001117, daa1106] | 88.28% | 
CCCCCCCCCCCCCCCC(=O)OCCC1CCN(CCCN2c3ccccc3Sc3ccc(S(=O)(=O)N(C)C)cc32)CC1 [ONC0005423, pipotiazinepalmitate] | 69.49% | 
Cc1ccc(S(=O)(=O)NC(=O)NN2CC3CCCC3C2)cc1 (centres unmarked) [ONC0002433, gliclazide] | 117.1% | 
CCC(C)C(C(=O)OCC[N+](C)(CC)CC)c1ccccc1 (centres unmarked) [ONC0002162, valethamate] | 73.33% | 
CN(C)Cc1cccc(N/C(=C2\C(=O)Nc3cc(C(=O)N(C)C)ccc32)c2ccccc2)c1 [ONC0002568, bix02189] | 85.62% | 

SMILES | % viability | % viability (Madurella mycetomatis metabolic activity at 2µM (%))
CCCC[C@@H](C=O)NC(=O)[C@H](CC(C)C)NC(=O)OCc1ccccc1 [ONC0000877, calpeptin] | 53.62% | 
Cc1ccc(NC(=O)c2ccc(CN3CCN(C)CC3)cc2)cc1Nc1nc(-c2cccnc2)cs1 [ONC0004682, masitinib ab1010] | 91.68% | 
O=C1C=Cc2cc(Br)ccc2C1=O [ONC0003739, bonaphthone] | 107.6% | 
CSCC[C@H](N)C(=O)O [ONC0005517, lmethionine] |  | 102.8%
CCn1cc(C(=O)O)c(=O)c2cnc(N3CCNCC3)nc21 [ONC0000661, pipemidic acid] | 96.65% | 
CCC(N)C(O)c1ccc(O)c(O)c1 (centres unmarked) [ONC0002281, ethylnorepinephrine hydrochloride] | 92.57% | 
NCCS(=O)(=O)O [ONC0002769, taurine] | 121.9% | 
COc1cc2nc(N3CCN(C(=O)c4ccco4)CC3)nc(N)c2cc1OC [ONC0000524, prazosin hydrochloride] | 68.62% | 
C[C@@H](O[C@H]1OCCN(Cc2nc(O)n(P(=O)(O)O)n2)[C@H]1c1ccc(F)cc1)c1cc(C(F)(F)F)cc(C(F)(F)F)c1 [ONC0004322, fosaprepitant dimeglumine salt] | 108.4% | 
CCCCS(=O)(=O)N[C@@H](Cc1ccc(OCCCCC2CCNCC2)cc1)C(=O)O [ONC0001987, tirofibanhcl monohydrate] | 99.93% | 
CCCN(CCC)C1CCc2ccc(O)cc2C1 (centres unmarked) [ONC0002652, 7hydroxydpat] | 61.59% | 
CCCCCCCC/C=C\CCCCCCCC(=O)N[C@@H](CO)Cc1ccc(O)cc1 [ONC0001522, omdm2] | 134.2% | 
Oc1c(I)cc(I)c2cccnc12 [ONC0000463, iodoquinol] | 67.55% | 
C[C@@]1(F)[C@H](O)[C@@H](CO)O[C@H]1n1ccc(N)nc1=O [ONC0000911, psi6130] | 79.14% | 
Cc1nc2c(c(=O)[nH]1)CSCC2 [ONC0003611, dr2313] | 76.12% | 
O=C(CCCN1CC=C(n2c(=O)[nH]c3ccccc32)CC1)c1ccc(F)cc1 [ONC0003169, droperidol] | 91.94% | 
O=C(NO)c1ccc2[nH]c(=O)c(CCCc3ccccc3)nc2c1 [ONC0001692, tcs2210] | 50.56% | 
CCN(CC)CCNC(=O)c1cc(S(C)(=O)=O)ccc1OC [ONC0003135, tiapride hydrochloride] | 96.45% | 
CCn1cc(C(=O)O)c(=O)c2ccc(C)nc21 [ONC0000701, nalidixic acid] | 101.8% | 
COc1ccc(-c2oc3c(CC=C(C)C)c(O[C@@H]4O[C@H](CO)[C@@H](O)[C@H](O)[C@H]4O)cc(O)c3c(=O)c2O[C@@H]2O[C@@H](C)[C@H](O)[C@@H](O)[C@H]2O)cc1 [ONC0004644, icariin] | 67.65% | 

Three successive entries already listed, for reference:
SMILES | % viability | % viability (Madurella mycetomatis metabolic activity at 2µM (%))
CCCN(CCC)C1CCc2ccc(O)cc2C1 (centres unmarked) [ONC0002652, 7hydroxydpat] | 61.59% | 
CCCCCCCC/C=C\CCCCCCCC(=O)N[C@@H](CO)Cc1ccc(O)cc1 [ONC0001522, omdm2] | 134.2% | 
Oc1c(I)cc(I)c2cccnc12 [ONC0000463, iodoquinol] | 67.55% | 
